Here are results for 2 molecules from paper PMC10988808.

Chains of the proteins cited; added tags and fusions are not shown.
UniProt P46937: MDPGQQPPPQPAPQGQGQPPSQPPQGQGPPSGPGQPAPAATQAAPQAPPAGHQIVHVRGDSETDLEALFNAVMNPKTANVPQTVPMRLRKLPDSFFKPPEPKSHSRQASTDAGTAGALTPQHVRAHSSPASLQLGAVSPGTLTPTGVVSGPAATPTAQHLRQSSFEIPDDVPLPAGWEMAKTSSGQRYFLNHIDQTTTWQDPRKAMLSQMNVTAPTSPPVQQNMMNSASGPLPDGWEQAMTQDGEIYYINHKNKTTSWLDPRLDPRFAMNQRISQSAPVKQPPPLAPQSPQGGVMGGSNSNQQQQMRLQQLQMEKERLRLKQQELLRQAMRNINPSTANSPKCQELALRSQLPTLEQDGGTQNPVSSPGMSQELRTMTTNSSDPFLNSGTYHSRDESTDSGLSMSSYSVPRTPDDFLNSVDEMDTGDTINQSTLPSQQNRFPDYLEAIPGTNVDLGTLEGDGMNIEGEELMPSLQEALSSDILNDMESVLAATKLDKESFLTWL

Results are given in words; binding and its absence hold for the method and conditions named. In cells and extracts the contact can be indirect. Some results given as binding are weak or reduced against the parent protein; the word gives no strength.

The target of one assay is T1, CCDC25 (UniProt Q86WR0).
T1 sequence: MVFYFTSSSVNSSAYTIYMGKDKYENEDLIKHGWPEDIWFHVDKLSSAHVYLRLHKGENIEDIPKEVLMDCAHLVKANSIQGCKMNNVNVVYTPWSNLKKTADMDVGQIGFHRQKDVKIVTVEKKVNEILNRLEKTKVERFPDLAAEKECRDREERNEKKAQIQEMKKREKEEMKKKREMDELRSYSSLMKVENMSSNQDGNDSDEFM
Put plainly: co-IP; 293T cell lysates prepared by weak RIPA lysis; immunoprecipitated by CCDC25 antibody, IgG as negative control.

Another assay has as its target YAP1-Flag (UniProt P46937). The experiment in a line: co-IP; 293T cell lysates prepared by weak RIPA lysis; immunoprecipitated by YAP1-Flag, IgG as negative control; with and without overexpression of CCDC25.

On to YAP (from UniProt P46937 1-504), for which the binding result with CCDC25 was “binds”.

B1: CCDC25 (protein, UniProt Q86WR0 1-208)
chain: T1 sequence
Turning to B1, the binding result in the assay with YAP1-Flag is recorded as “binds”.
